Results on eight molecules are retold here after patent US20220339110A1, “FAST CONSOLIDATING COMPOUNDS” (Universität Innsbruck, priority 2019, published 2022).

The data set in a line: Moulding process: time to stable tablets (consolidation/solidification time) and liquid amount after wetting the powder. In kind it is physicochemical. To be noted: for amount of water needed: per 100 mg powder; for optimal amount of liquid with regard to powder mass (μl liquid to mg powder): water. On the procedure: α-Lactose anhydrate was transferred into wells of a moulding form and wetted with pure water and water/alcohol mixtures, as shown in FIG. 2. Pure water and aqueous EtOH solutions, 25% (v/v) and 50% EtOH (v/v), ratio by volume, were used as solvents. These experiments were performed to measure the time needed for the formation of stable tablets, to determine the optimal amount of solvent, and to determine the optimal water:alcohol ratio in water/alcohol mixtures.
The solidification time (time until the tablets show sufficient hardness for handling) after addition of the solvent was determined using pure water and an aqueous glucose solution. It was observed that the solidification time of anhydrous glucose is much shorter when glucose solutions are applied instead of pure water. Glucose anhydrate solidifies after 10-15 min when water is used but hardens within 2-6 minutes after the application of glucose solutions. The amount of glucose in the solution is less critical for the solidification time, a concentration of 25 wt % is sufficient.
The moulding form tests were carried out with two different solvents: a) water and b) 50% EtOH (v/v) solution.
In a first experiment, tablets with amorphous Ca-L-Lactate (L-CaLac) using pure water were produced.
Wetting partly anhydrous MgSO4 (7 wt % water content) with pure water results in solid tablets. After 5 minutes the tablets can be unbaged from the moulding form. The wettability is not as good as for the α-lactose powders. About 50-60 μl water were added per 100 mg powder. By using a saturated aqueous solution of MgSO4 the hardening time could be halved (2-3 minutes).

For `OC[C@H]1O[C@H](OC[C@H]2O[C@H](O[C@]3(CO)O[C@H](CO)[C@@H](O)[C@@H]3O)[C@H](O)[C@@H](O)[C@@H]2O)[C@H](O)[C@@H](O)[C@H]1O` [Raffinose anhydrate], the “Powder/liquid ratio (μl liquid to mg powder)” value (“Powder/liquid ratio” for short) (solution: water, moulding) was “ca. 30%^”. Regarding `O=S(=O)([O-])[O-].[Na+].[Na+]` [Na2SO4 anhydrate], the “amount of water needed” value is “about 18 μl”. Also, the “Powder/liquid ratio” value (solution: water, moulding) is reported as “ca. 15%^”.

As for `O=S(=O)([O-])[O-].[Mg+2]` [MgSO4 anhydrate], the “optimal amount of liquid with regard to powder mass (μl liquid to mg powder)” value (from here on “optimal amount of liquid with regard”) is 50-60%. Also, the “Powder/liquid ratio” value (solution: water, moulding) is reported as 50-60%. For `OC[C@H]1OC(O)[C@H](O)[C@@H](O)[C@@H]1O` (stereo partly drawn) [Glucose anhydrate], the “amount of water needed” value is listed as “ca. 30 μl”. In addition, the “Powder/liquid ratio” value (solution: aqueous glucose solution (25-50 wt %)) was found to be 30%. For the same molecule, for the setting “solution: water, moulding”, the “Powder/liquid ratio” value was 30%. For `O.O=S(=O)([O-])[O-].O=S(=O)([O-])[O-].[Ca+2].[Ca+2]` [Calcium sulphate hemihydrate, reference compound], the “Powder/liquid ratio” value (solution: water, moulding) came to 100%. Turning to `OC[C@H]1O[C@@H](O[C@H]2[C@H](O)[C@@H](O)[C@@H](O)O[C@@H]2CO)[C@H](O)[C@@H](O)[C@H]1O` [Stable α-Lactose anhydrate], the “optimal amount of liquid with regard” value is recorded as 50-60%. Besides, the “amount of liquid relative to powder mass needed” value (aqueous ethanol solutions) was 90-100%. Further, the “Powder/liquid ratio” value (solution: water, moulding) is 50-60%. As for `C[C@H](O)C(=O)[O-].C[C@H](O)C(=O)[O-].[Ca+2]` [Ca-Lactate anhydrate, anhydrous Ca-Lactate], the “optimal amount of liquid with regard” value was 40%. Further, the “Powder/liquid ratio” value (solution: water, moulding) is reported as 35-40%.

Regarding `O=C([O-])CC(O)(CC(=O)[O-])C(=O)[O-].O=C([O-])CC(O)(CC(=O)[O-])C(=O)[O-].[Mg+2].[Mg+2].[Mg+2]` [Mg Citrate anhydrate, anhydrous Mg Citrate], the “Powder/liquid ratio” value (solution: water, moulding) was 40-50%.
